Sequences of proteins named here, by UniProt entry; tags and fusion partners are left off. Residues count along the entry.
UniProt P02769, 25-607: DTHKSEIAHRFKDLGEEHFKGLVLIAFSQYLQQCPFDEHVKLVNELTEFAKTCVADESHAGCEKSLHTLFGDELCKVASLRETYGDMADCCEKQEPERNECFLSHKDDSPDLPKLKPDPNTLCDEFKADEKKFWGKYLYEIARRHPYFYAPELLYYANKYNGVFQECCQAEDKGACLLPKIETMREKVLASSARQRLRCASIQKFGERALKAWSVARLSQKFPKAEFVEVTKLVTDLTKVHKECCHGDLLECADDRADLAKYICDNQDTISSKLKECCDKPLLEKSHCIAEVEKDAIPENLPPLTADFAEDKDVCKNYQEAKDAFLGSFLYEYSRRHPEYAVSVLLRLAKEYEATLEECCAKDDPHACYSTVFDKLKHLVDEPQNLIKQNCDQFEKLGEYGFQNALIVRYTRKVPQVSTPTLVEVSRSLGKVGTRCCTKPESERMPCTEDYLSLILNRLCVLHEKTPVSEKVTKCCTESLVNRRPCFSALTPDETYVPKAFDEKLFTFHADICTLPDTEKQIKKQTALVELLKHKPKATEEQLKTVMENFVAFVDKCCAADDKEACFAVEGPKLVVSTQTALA

In paper PMC10077752, “Insights on the in-vitro binding interaction between donepezil and bovine serum albumin” (BMC Chemistry, 2023):

Target: T1, bovine serum albumin (BSA) (Bos taurus, UniProt P02769)
T1 construct: gene ALB
Conditions: 298 K, 20 mM Tris pH 7.4, BSA 4 × 10^–8 M, excitation 285 nm; site I (subdomain IIA) by site-marker competition

`COc1cc2c(cc1OC)C(=O)C(CC1CCN(Cc3ccccc3)CC1)C2` (stereo not shown) [donepezil] was tested, and the “kb × 10^4 (Lmol^-1)” value was 1.472 × 10^4 Lmol^−1.
